The source of these data is the supplement of paper PMC10338343.

For the experiment, the system named is EfPiwi piRISC loaded with L1MC piRNA (26 nt). In words: pre-steady-state target cleavage rate (min^-1); guide: L1MC piRNA 5'p-UAACUAAAUACUAUGCAAGCUGUAGG; MIWI and MILI are mouse PIWI proteins and EfPiwi is from a freshwater sponge; tags in brackets are library labels; higher = faster piRNA-guided slicing of the target. Put shortly: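 In HEPES–potassium acetate buffer at 33 °C, […] transcribed, DNA-blocked target RNA library was mixed with 1 nM active affinity-purified piRISC carrying one synthetic guide, with or without 500 nM GTSF1 partner protein, for 0–8 or 0–960 min. Uncleaved targets were sequenced and normalised to depth and to weakly complementary targets; three trials were pooled and k3 was capped at 0.0001 min^-1. The pre-steady-state cleavage rate followed from a burst-and-steady-state fit.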

[1] abbreviates: auxiliary factor: none (no Gtsf1).
Where [2] appears, read: auxiliary factor: 500 nM Ephydatia muelleri Gtsf1.

± gives the standard deviation. The list shows a part of the results. Many of these values have a large error.

In the case of UCCUGGAUGUCGAACGUUAGUAAUAAGUUA, the “pre-steady-state target cleavage rate” value under setting [1] stood at 0.000102 ± 0.039.
Still for that read-out and setting: the result for UCCUGGAACUGCUUGCAUAGUAUUUAGUAA reads 0.001 ± 0.0081.
On to UCCUCCUACAGGUUGCAUUGUAUUUAGUUA, for which the “pre-steady-state target cleavage rate” value under setting [2] worked out at 0.0124 ± 0.0028.
The same measure, in the same setting: the result for UCCUGGAAUAGCUUGCAUAGUAUUUAGUUA reads 0.0137 ± 0.0037.
Still for that read-out and setting: the result for UCCUGGAUGUCGAACGAUACGUAUUUAGUUA reads below 0.0001; that for UCCUCCUACACCUUGGAUAGUAUUUAGUUA, 0.00658 ± 0.0029; that for UCCUGGAUGUGCUUGCUUACUAUUUAGUUA, 0.00191 ± 0.0053.
As to UCCUCCUACAGCUUGCAUAGUAAUUUGUUA, the “pre-steady-state target cleavage rate” value under setting [2] turned out to be 0.00652 ± 0.0028.
In the case of UCCUGGAACAGCUUGCCUAGUAUUUAGUUA, the “pre-steady-state target cleavage rate” value under setting [2] amounted to 0.0399 ± 0.013.
Still for that read-out and setting: as for UCCUGGAUCACCUUGCAUUGUAUUUAGUUA, the figure is 0.00151 ± 0.0045.
Regarding UCCUCCUGACAGCUUGCAUAGUAUUUAGUUA, the “pre-steady-state target cleavage rate” value under setting [2] was determined as 0.0255 ± 0.008.
Same read-out and setting: as for UCCUGGAACAGCUUGCAUACUUUUUAGUUA, the figure is 0.000898 ± 0.0064; as for UCCUGGUACACCUAGCAUAGUAUUUAGUUA, 0.00319 ± 0.0029.
Still for that read-out and setting: as for UCCUGGAUGUCGUUGCACAGUAUUUAGUUA, the figure is 0.0015 ± 0.0052; as for UCCUGGAUCAGCUUGCAUAGUAAUUAGUAA, 0.00487 ± 0.0027.
Turning to UCCUGGAUGUCGAUGCAUAGUUUAUAGUUA, the “pre-steady-state target cleavage rate” value under setting [1] is 0.000122 ± 0.03.
Take UCCUGCUUCAGCUUGCAUAGUAUUUAGUAA: the “pre-steady-state target cleavage rate” value under setting [2] turned out to be 0.00811 ± 0.0033.
As to UCCUGGAACAGGUUGCAUACUAUUUAGUUA, the “pre-steady-state target cleavage rate” value under setting [2] was 0.00367 ± 0.0017.
As to UCCUGGAUCAGCUUGCUUAGUAUAUAGUUA, the “pre-steady-state target cleavage rate” value under setting [2] was determined as 0.00383 ± 0.0041.
For “UCCUGGAUGUCGUUGCAUAGUAUUAUCAAA [g7:g18:cont:t1A]”, the “pre-steady-state target cleavage rate” value under setting [2] turned out to be 0.00024 ± 0.013.
Consider UCCUGGAACUGCUUGCAUAGAAUUUAGUUA, for which the “pre-steady-state target cleavage rate” value under setting [2] amounted to 0.00158 ± 0.0031.
Same read-out and setting: the result for UCCUGGAUCAGCUUGGUUAGUAUUUAGUUA reads 0.00217 ± 0.0034; that for UCCUGGAUCAGCUGCAUAGUAUUUAGUUA, 0.0152 ± 0.0053.
The same measure, in the same setting: the result for UCCUGGAUGUCGAACGUAUCUAUGUAGUUA reads below 0.0001; that for UCCUGGAUGCGCUUGCAUAGUAUUUAGUUA, 0.0286 ± 0.0065.
The same measure, in the same setting: as for UCCUGGAUGUCGAACGUAAGUAUUAAGUAA, the figure is 0.000372 ± 0.018; as for UCCUGGUACAGCUUGCAUACUUUUUAGUUA, 0.00064 ± 0.02; as for UCCUCCUACAGCUUGCAUAGUAUUAUCUUA, 0.00351 ± 0.0027.
For the sequence UCCUGGAACAGCUUGCAUAGUAUGUAGUUA, the “pre-steady-state target cleavage rate” value under setting [1] was determined as 0.000453 ± 0.021.
For the sequence UCCUGCUACAGCUAGCAAAGUAUUUAGUUA, the “pre-steady-state target cleavage rate” value under setting [2] was determined as 0.0328 ± 0.0098.
On the same count and under the same terms, as for UCCUGGAUGUCGAUCCAUAGAAUUUAGUUA, the figure is 0.000314 ± 0.017.
Turning to UCCUGGAUGAGCAUGCAUUGUAUUUAGUUA, the “pre-steady-state target cleavage rate” value under setting [2] worked out at 0.00289 ± 0.0022.
Take UCCUGGAUCAGCUUGCAAAGUAUUUACUUA: under setting [2], the “pre-steady-state target cleavage rate” value is 0.000995 ± 0.0053.
Consider UCCUGGAUGUCCUUGCAUAGUAUAUAGUUA, for which, under setting [2], the “pre-steady-state target cleavage rate” value came to 0.003 ± 0.004.
Same read-out and setting: the result for UCCUGCUACAGCUUGCAUAGUAUUUACUAA reads 0.0025 ± 0.0024; that for UCCUCCAACAGCUUGCAUAGUUUUUAGUUA, 0.0119 ± 0.0041; that for UCCUGGAUGUCGAUCCAUAGUAUUUAGUAA, 0.000444 ± 0.013.
For the sequence UCCUGGAUCAGCUUGCACAGUAUUUAGUUA, the “pre-steady-state target cleavage rate” value under setting [2] came to 0.0672 ± 0.016.
As for UCCUGGAUGUCGAACGAUAGUAUUUCAGUUA, the “pre-steady-state target cleavage rate” value under setting [2] came to 0.000179 ± 0.032.
On to UCCUCGUACAGCUUGCAUUGUAUUUAGUUA, for which the “pre-steady-state target cleavage rate” value under setting [2] was found to be 0.0163 ± 0.004.
On to UCCUCCUACUAGCUUGCAUAGUAUUUAGUUA, for which the “pre-steady-state target cleavage rate” value under setting [2] turned out to be 0.127 ± 0.035.
Take UCCUGGAUGAGCAUGCAUAGUAUUUAGUAA: under setting [1], the “pre-steady-state target cleavage rate” value was found to be 0.000702 ± 0.015.
For UCCUGGAUCAGCUUUCAUAGUAUUUAGUUA, the “pre-steady-state target cleavage rate” value under setting [2] came to 0.0103 ± 0.0032 and the “pre-steady-state target cleavage rate” value under setting [1] worked out at 0.000585 ± 0.016.
For UCCUGGUACGCUUGCAUAGUAUUUAGUUA, in that order: 0.00582 ± 0.0027 and 0.000262 ± 0.05.
For UCCUGGAACACCUUGCAUAGUAUUUAGUUA the same measures were 0.0061 ± 0.0032 and 0.00104 ± 0.0086.
Consider UCCUGGAUGUCCUUGCAUAGUAUCUUAGUUA, for which the “pre-steady-state target cleavage rate” value is, setting by setting: under setting [2], 0.00294 ± 0.0039; under setting [1], 0.000887 ± 0.0094.
For UCCUGGAUGUCGAAGCAUAGUAUAUACUUA the same measures were 0.000214 ± 0.016 and below 0.0001.
For UCCUGGAAGAGCUUGGAUAGUAUUUAGUUA, the “pre-steady-state target cleavage rate” value runs as follows: under setting [2], 0.00392 ± 0.0027; under setting [1], 0.00136 ± 0.0079.
For UCCUGGAUCAGCUUGCAUAGUACUUUAGUUA the same measures were 0.00735 ± 0.0023 and 0.00468 ± 0.0038.
Turning to UCCUGGAACAGCUUGCAUCGUAUUUAGUUA, the “pre-steady-state target cleavage rate” value was determined as 0.0172 ± 0.0048 under setting [2] and 0.00791 ± 0.0048 under setting [1].
UCCUGCUACAGCUAGCUUAGUAUUUAGUUA: the “pre-steady-state target cleavage rate” value runs as follows: under setting [2], 0.00973 ± 0.0029; under setting [1], 0.000915 ± 0.0074.
Regarding UCCUGGAACAGCUUGCAUAGUCAUUUAGUUA, the “pre-steady-state target cleavage rate” value turned out to be 0.00111 ± 0.0045 under setting [2] and 0.000444 ± 0.015 under setting [1].
In the case of UCCUGGAUCAGCUUGCAUAGUAGUUUAGUUA, the “pre-steady-state target cleavage rate” value under setting [2] amounted to 0.0107 ± 0.0033 and the “pre-steady-state target cleavage rate” value under setting [1] stood at 0.011 ± 0.0045.
Regarding UCCUGGUACAGCUAGCAUUGUAUUUAGUUA, the “pre-steady-state target cleavage rate” value under setting [2] came to 0.00108 ± 0.01 and the “pre-steady-state target cleavage rate” value under setting [1] is 0.000832 ± 0.012.
For UCCUGGAUGAGCAUGCAUAGUAUUUAGUUA, in that order: 0.0207 ± 0.0065 and 0.00167 ± 0.0052.
For “UCCUGGAUGUCGUUGCAUAGUAUUUAGUUU [g2:g18:cont:t1U]”, in that order: 0.00135 ± 0.005 and 0.000512 ± 0.02.
With UCCUGGAUGAGCUUGCUUAGUAAUUAGUUA, the “pre-steady-state target cleavage rate” value under setting [2] amounted to 0.00425 ± 0.0027 and the “pre-steady-state target cleavage rate” value under setting [1] came out at 0.000376 ± 0.028.
For UCCUGGAAGAGCUUGCAUAGUUUUUAGUUA the same measures were 0.00316 ± 0.003 and 0.000972 ± 0.013.
For UCCUGGAUCAGCUUGCAUAGUAUUCUAGUUA, in that order: 0.000839 ± 0.0096 and 0.00123 ± 0.0067.
For UCCUGGAUCAGCUUGCAUAGUAUUUUGUAA, in that order: 0.00202 ± 0.0021 and 0.000136 ± 0.03.
With UCCUGCUACAGGAAGCAUAGUAUUUAGUAA, the “pre-steady-state target cleavage rate” value under setting [2] was found to be 0.00302 ± 0.0027 and the “pre-steady-state target cleavage rate” value under setting [1] was determined as 0.000137 ± 0.028.
